Results published in paper PMC9663503, “Independently evolved viral effectors convergently suppress DELLA protein SLR1-mediated broad-spectrum antiviral immunity in rice” (Nature Communications, 2022).
These are yes or no findings as the source states them, for the method shown. A result given as binding can be weak or reduced; the word gives no strength. Where a sequence is shown, tags or fusion partners need not be part of it. For some of these results: In cells and extracts the contact can be indirect.

Key:
[1] = biological target: T1, SLR1 (expressed in N. benthamiana; tag not stated) (rice (Oryza sativa)) (UniProt Q7G7J6); assay: co-IP; N. benthamiana leaves co-expressing the tagged proteins, harvested 48 hpi; IP buffer 25 mM Tris-HCl pH 7.4, 150 mM NaCl, 1% NP-40; Flag-trap beads 2 h at 4 °C; immunoblot
T1 sequence: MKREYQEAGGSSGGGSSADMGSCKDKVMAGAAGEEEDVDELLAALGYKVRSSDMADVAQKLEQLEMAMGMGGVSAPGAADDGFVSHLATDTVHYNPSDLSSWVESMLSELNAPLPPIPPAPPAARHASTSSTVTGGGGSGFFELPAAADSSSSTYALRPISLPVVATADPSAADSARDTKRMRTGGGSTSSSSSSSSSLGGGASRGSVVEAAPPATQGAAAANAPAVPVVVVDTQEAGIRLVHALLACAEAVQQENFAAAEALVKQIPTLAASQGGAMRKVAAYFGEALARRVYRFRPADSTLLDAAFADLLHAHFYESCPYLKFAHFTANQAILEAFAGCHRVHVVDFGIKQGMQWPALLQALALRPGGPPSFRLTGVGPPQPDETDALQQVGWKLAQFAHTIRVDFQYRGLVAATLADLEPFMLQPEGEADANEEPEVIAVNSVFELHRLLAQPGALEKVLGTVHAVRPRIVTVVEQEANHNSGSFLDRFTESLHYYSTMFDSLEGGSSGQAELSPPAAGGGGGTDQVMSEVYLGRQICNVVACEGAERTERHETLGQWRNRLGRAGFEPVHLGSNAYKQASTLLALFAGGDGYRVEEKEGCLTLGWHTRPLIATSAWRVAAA

[2] = biological target: T2, SLR1-flag (rice (Oryza sativa)) (UniProt Q7G7J6); assay: co-IP; competitive co-IP in N. benthamiana leaves; a third protein (SP8, P2 or SLR1) co-infiltrated at OD600 0.5 or 1.0; 50 µM MG132 at 24 hpi (Fig. 3e, f, 6a-d); Flag-tag or HA-tag paramagnetic beads
T2 sequence: T1 sequence

[3] = biological target: T3, GST-SLR1 (rice (Oryza sativa)) (UniProt Q7G7J6); assay: pull-down; GST-SLR1 on GST beads, in the absence of GA3; His-fusion viral protein; anti-GST and anti-His blots; both purified
T3 sequence: T1 sequence

[4] = biological target: T4, SLR1 (BiFC fusion used with OsJAZ proteins; YFP half not stated) (rice (Oryza sativa)) (UniProt Q7G7J6); assay: split reporter; BiFC; cYFP and nYFP fusions agro-infiltrated into N. benthamiana leaves, confocal microscopy at 48 h
T4 sequence: T1 sequence

[5] = biological target: T5, OsGID1-flag (rice (Oryza sativa)) (UniProt Q6L545); assay: co-IP; N. benthamiana leaves co-expressing the tagged proteins, harvested 48 hpi; IP buffer 25 mM Tris-HCl pH 7.4, 150 mM NaCl, 1% NP-40; Flag-trap beads 2 h at 4 °C; immunoblot
T5 sequence: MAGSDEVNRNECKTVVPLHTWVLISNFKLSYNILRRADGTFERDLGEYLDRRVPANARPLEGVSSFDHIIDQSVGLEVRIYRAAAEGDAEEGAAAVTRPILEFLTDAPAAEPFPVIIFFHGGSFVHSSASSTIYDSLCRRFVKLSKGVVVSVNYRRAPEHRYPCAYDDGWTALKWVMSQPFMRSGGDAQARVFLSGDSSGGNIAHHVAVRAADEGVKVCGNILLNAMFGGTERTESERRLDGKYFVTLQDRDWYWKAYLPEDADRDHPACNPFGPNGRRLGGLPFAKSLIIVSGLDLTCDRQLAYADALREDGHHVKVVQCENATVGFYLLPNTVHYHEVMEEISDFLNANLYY

[6] = biological target: T2, SLR1-flag (rice (Oryza sativa)); assay: as above
[7] = biological target: T6, SLR1-cYFP (rice (Oryza sativa)) (UniProt Q7G7J6); assay: split reporter; BiFC; cYFP and nYFP fusions agro-infiltrated into N. benthamiana leaves, confocal microscopy at 48 h
T6 sequence: T1 sequence

[8] = biological target: BD-RSV P2 (Rice stripe virus (RSV)); assay: two-hybrid; pairwise co-transformation into yeast AH109; growth on SD/-Leu/-Trp/-His/-Ade plates at 30 °C, 3 days; viral proteins on BD, SLR1 and its derivatives on AD
[9] = biological target: BD-SP8 (Southern rice black-streaked dwarf virus (SRBSDV)); assay: as above
[10] = biological target: BD-RBSDV P8 (Rice black-streaked dwarf virus (RBSDV)); assay: as above
[11] = biological target: BD-RSMV M (Rice stripe mosaic virus (RSMV)); assay: as above
[12] = biological target: OsJAZ12 (yeast two-hybrid fusion) (rice (Oryza sativa)); assay: as above
[13] = biological target: OsJAZ3 (yeast two-hybrid fusion) (rice (Oryza sativa)); assay: as above
[14] = biological target: OsJAZ4 (yeast two-hybrid fusion) (rice (Oryza sativa)); assay: as above
[15] = biological target: OsJAZ9 (yeast two-hybrid fusion) (rice (Oryza sativa)); assay: as above
[16] = biological target: GST-P2 (Rice stripe virus (RSV)); assay: pull-down; GST fusion or GST on GST beads with or without 100 µM GA3, 4 °C 1 h; MBP-His-OsGID1 added for 2 h; anti-His blot; both purified
[17] = biological target: GST-SP8 (Southern rice black-streaked dwarf virus (SRBSDV)); assay: as above

## OsJAZ9-HA (rice (Oryza sativa))
[1]
  binding: binds
[2]
  binding: binds

## MBP-His-P2 (Rice stripe virus (RSV))
[3]
  binding: binds

## TF-His-SP8
[3]
  binding: binds

## OsJAZ3 (BiFC fusion; YFP half not stated) (rice (Oryza sativa))
[4]
  binding: binds

## P2-myc (Rice stripe virus (RSV))
[5]
  binding: binds
[6]
  binding: binds

## OsJAZ12 (BiFC fusion; YFP half not stated) (rice (Oryza sativa))
[4]
  binding: binds

## M-nYFP (Rice stripe mosaic virus (RSMV))
[7]
  binding: binds

## OsJAZ4 (BiFC fusion; YFP half not stated) (rice (Oryza sativa))
[4]
  binding: binds

## OsJAZ9-cYFP (rice (Oryza sativa))
[4]
  binding: binds

## SP8-nYFP
[7]
  binding: binds

## SP8-myc
[5]
  binding: binds
[6]
  binding: binds

## P2-nYFP (Rice stripe virus (RSV))
[7]
  binding: binds

B1: OsGID1 (yeast two-hybrid fusion) (receptor, UniProt Q6L545 1-354)
chain: T5 sequence
[8]
  binding: binds
[9]
  binding: binds

B2: AD-SLR1 (protein, UniProt Q7G7J6 1-625)
chain: T1 sequence
[10]
  binding: binds
[11]
  binding: binds
[8]
  binding: binds
[9]
  binding: binds
[12]
  binding: binds
[13]
  binding: binds
[14]
  binding: binds
[15]
  binding: binds

B3: MBP-His-OsGID1 (receptor)
chain: T5 sequence
notes: OsGID1, the rice gibberellin receptor GIBBERELLIN … DWARF1; also called PET32a-MBP-His-OsGID1; source: E. coli Rosetta (DE3), purified (Ni-NTA His-trap column)
[16]
  binding: binds
[17]
  binding: binds

B4: SLR1 region containing the GRAS element (AD fusion) (domain or fragment, UniProt Q7G7J6 232-621)
chain: VDTQEAGIRLVHALLACAEAVQQENFAAAEALVKQIPTLAASQGGAMRKVAAYFGEALARRVYRFRPADSTLLDAAFADLLHAHFYESCPYLKFAHFTANQAILEAFAGCHRVHVVDFGIKQGMQWPALLQALALRPGGPPSFRLTGVGPPQPDETDALQQVGWKLAQFAHTIRVDFQYRGLVAATLADLEPFMLQPEGEADANEEPEVIAVNSVFELHRLLAQPGALEKVLGTVHAVRPRIVTVVEQEANHNSGSFLDRFTESLHYYSTMFDSLEGGSSGQAELSPPAAGGGGGTDQVMSEVYLGRQICNVVACEGAERTERHETLGQWRNRLGRAGFEPVHLGSNAYKQASTLLALFAGGDGYRVEEKEGCLTLGWHTRPLIATSAWR
[10]
  binding: binds
[11]
  binding: binds
[8]
  binding: binds
[9]
  binding: binds
